Assay: Antimitotic activity in human MCF7 cells assessed as mitotic index measured after 20 hrs by DAPI-staining based fluorescence microscopic analysis
Type: functional, cell-based

COc1cc2c(c(OC)c1OC)-c1ccc(OC)c(=O)cc1[C@@H](NC(C)=O)CC2 [COLCHICINE]
IC50: 23.8 nM

Reference: ChEMBL document CHEMBL3881525, “Analogs of dehydrophenylahistins and their therapeutic use” (2007)
